Reference: paper PMC5548489
No constants are given. Whether binding was seen depends on the method and setting. Binding seen in cells or lysates may run through a third protein. A yes stands for co-enrichment or nearness to the bait. Other partners may have been found.

The chains behind the UniProt entries cited, without tags or fusion partners.
UniProt P03372: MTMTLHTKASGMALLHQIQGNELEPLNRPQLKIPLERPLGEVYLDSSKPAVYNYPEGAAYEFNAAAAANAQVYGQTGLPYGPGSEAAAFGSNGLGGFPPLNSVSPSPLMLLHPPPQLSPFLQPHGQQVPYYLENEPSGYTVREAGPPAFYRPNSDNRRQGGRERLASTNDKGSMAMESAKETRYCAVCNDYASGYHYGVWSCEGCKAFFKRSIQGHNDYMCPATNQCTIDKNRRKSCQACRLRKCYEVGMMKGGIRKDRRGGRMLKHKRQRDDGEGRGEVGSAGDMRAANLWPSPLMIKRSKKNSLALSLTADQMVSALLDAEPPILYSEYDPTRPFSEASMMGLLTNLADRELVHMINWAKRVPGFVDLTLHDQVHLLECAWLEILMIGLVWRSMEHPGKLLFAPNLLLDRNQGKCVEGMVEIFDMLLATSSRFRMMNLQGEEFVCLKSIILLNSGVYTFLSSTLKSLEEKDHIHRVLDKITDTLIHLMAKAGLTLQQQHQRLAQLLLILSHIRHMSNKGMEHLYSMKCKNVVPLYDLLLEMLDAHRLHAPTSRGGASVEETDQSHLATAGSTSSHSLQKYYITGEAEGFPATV

B1: PFKL (protein, UniProt P17858 1-780)
chain: MAAVDLEKLRASGAGKAIGVLTSGGDAQGMNAAVRAVTRMGIYVGAKVFLIYEGYEGLVEGGENIKQANWLSVSNIIQLGGTIIGSARCKAFTTREGRRAAAYNLVQHGITNLCVIGGDGSLTGANIFRSEWGSLLEELVAEGKISETTARTYSHLNIAGLVGSIDNDFCGTDMTIGTDSALHRIMEVIDAITTTAQSHQRTFVLEVMGRHCGYLALVSALASGADWLFIPEAPPEDGWENFMCERLGETRSRGSRLNIIIIAEGAIDRNGKPISSSYVKDLVVQRLGFDTRVTVLGHVQRGGTPSAFDRILSSKMGMEAVMALLEATPDTPACVVTLSGNQSVRLPLMECVQMTKEVQKAMDDKRFDEATQLRGGSFENNWNIYKLLAHQKPPKEKSNFSLAILNVGAPAAGMNAAVRSAVRTGISHGHTVYVVHDGFEGLAKGQVQEVGWHDVAGWLGRGGSMLGTKRTLPKGQLESIVENIRIYGIHALLVVGGFEAYEGVLQLVEARGRYEELCIVMCVIPATISNNVPGTDFSLGSDTAVNAAMESCDRIKQSASGTKRRVFIVETMGGYCGYLATVTGIAVGADAAYVFEDPFNIHDLKVNVEHMTEKMKTDIQRGLVLRNEKCHDYYTTEFLYNLYSSEGKGVFDCRTNVLGHLQQGGAPTPFDRNYGTKLGVKAMLWLSEKLREVYRKGRVFANAPDSACVIGLKKKAVAFSPVTELKKDTDFEHRMPREQWWLSLRLMLKMLAQYRISMAAYVSGELEHVTRRTLSMDKGF
B2: PFKM (protein, UniProt P08237 1-780)
chain: MTHEEHHAAKTLGIGKAIAVLTSGGDAQGMNAAVRAVVRVGIFTGARVFFVHEGYQGLVDGGDHIKEATWESVSMMLQLGGTVIGSARCKDFREREGRLRAAYNLVKRGITNLCVIGGDGSLTGADTFRSEWSDLLSDLQKAGKITDEEATKSSYLNIVGLVGSIDNDFCGTDMTIGTDSALHRIMEIVDAITTTAQSHQRTFVLEVMGRHCGYLALVTSLSCGADWVFIPECPPDDDWEEHLCRRLSETRTRGSRLNIIIVAEGAIDKNGKPITSEDIKNLVVKRLGYDTRVTVLGHVQRGGTPSAFDRILGSRMGVEAVMALLEGTPDTPACVVSLSGNQAVRLPLMECVQVTKDVTKAMDEKKFDEALKLRGRSFMNNWEVYKLLAHVRPPVSKSGSHTVAVMNVGAPAAGMNAAVRSTVRIGLIQGNRVLVVHDGFEGLAKGQIEEAGWSYVGGWTGQGGSKLGTKRTLPKKSFEQISANITKFNIQGLVIIGGFEAYTGGLELMEGRKQFDELCIPFVVIPATVSNNVPGSDFSVGADTALNTICTTCDRIKQSAAGTKRRVFIIETMGGYCGYLATMAGLAAGADAAYIFEEPFTIRDLQANVEHLVQKMKTTVKRGLVLRNEKCNENYTTDFIFNLYSEEGKGIFDSRKNVLGHMQQGGSPTPFDRNFATKMGAKAMNWMSGKIKESYRNGRIFANTPDSGCVLGMRKRALVFQPVAELKDQTDFEHRIPKEQWWLKLRPILKILAKYEIDLDTSDHAHLEHITRKRSGEAAV
B3: PFKP (protein, UniProt Q01813 1-784)
chain: MDADDSRAPKGSLRKFLEHLSGAGKAIGVLTSGGDAQGMNAAVRAVVRMGIYVGAKVYFIYEGYQGMVDGGSNIAEADWESVSSILQVGGTIIGSARCQAFRTREGRLKAACNLLQRGITNLCVIGGDGSLTGANLFRKEWSGLLEELARNGQIDKEAVQKYAYLNVVGMVGSIDNDFCGTDMTIGTDSALHRIIEVVDAIMTTAQSHQRTFVLEVMGRHCGYLALVSALACGADWVFLPESPPEEGWEEQMCVKLSENRARKKRLNIIIVAEGAIDTQNKPITSEKIKELVVTQLGYDTRVTILGHVQRGGTPSAFDRILASRMGVEAVIALLEATPDTPACVVSLNGNHAVRLPLMECVQMTQDVQKAMDERRFQDAVRLRGRSFAGNLNTYKRLAIKLPDDQIPKTNCNVAVINVGAPAAGMNAAVRSAVRVGIADGHRMLAIYDGFDGFAKGQIKEIGWTDVGGWTGQGGSILGTKRVLPGKYLEEIATQMRTHSINALLIIGGFEAYLGLLELSAAREKHEEFCVPMVMVPATVSNNVPGSDFSIGADTALNTITDTCDRIKQSASGTKRRVFIIETMGGYCGYLANMGGLAAGADAAYIFEEPFDIRDLQSNVEHLTEKMKTTIQRGLVLRNESCSENYTTDFIYQLYSEEGKGVFDCRKNVLGHMQQGGAPSPFDRNFGTKISARAMEWITAKLKEARGRGKKFTTDDSICVLGISKRNVIFQPVAELKKQTDFEHRIPKEQWWLKLRPLMKILAKYKASYDVSDSGQLEHVQPWSV
B4: LIG3 (protein, UniProt P49916 43-1009)
chain: LLHGHPLFLRRKPVLSFQGSHLRSRATYLVFLPGLHVGLCSGPCEMAEQRFCVDYAKRGTAGCKKCKEKIVKGVCRIGKVVPNPFSESGGDMKEWYHIKCMFEKLERARATTKKIEDLTELEGWEELEDNEKEQITQHIADLSSKAAGTPKKKAVVQAKLTTTGQVTSPVKGASFVTSTNPRKFSGFSAKPNNSGEAPSSPTPKRSLSSSKCDPRHKDCLLREFRKLCAMVADNPSYNTKTQIIQDFLRKGSAGDGFHGDVYLTVKLLLPGVIKTVYNLNDKQIVKLFSRIFNCNPDDMARDLEQGDVSETIRVFFEQSKSFPPAAKSLLTIQEVDEFLLRLSKLTKEDEQQQALQDIASRCTANDLKCIIRLIKHDLKMNSGAKHVLDALDPNAYEAFKASRNLQDVVERVLHNAQEVEKEPGQRRALSVQASLMTPVQPMLAEACKSVEYAMKKCPNGMFSEIKYDGERVQVHKNGDHFSYFSRSLKPVLPHKVAHFKDYIPQAFPGGHSMILDSEVLLIDNKTGKPLPFGTLGVHKKAAFQDANVCLFVFDCIYFNDVSLMDRPLCERRKFLHDNMVEIPNRIMFSEMKRVTKALDLADMITRVIQEGLEGLVLKDVKGTYEPGKRHWLKVKKDYLNEGAMADTADLVVLGAFYGQGSKGGMMSIFLMGCYDPGSQKWCTVTKCAGGHDDATLARLQNELDMVKISKDPSKIPSWLKVNKIYYPDFIVPDPKKAAVWEITGAEFSKSEAHTADGISIRFPRCTRIRDDKDWKSATNLPQLKELYQLSKEKADFTVVAGDEGSSTTGGSSEENKGPSGSAVSRKAPSKPSASTKKAEGKLSNSNSKDGNMQTAKPSAMKVGEKLATKSSPVKVGEKRKAADETLCQTKVLLDIFTGVRLYLPPSTPDFSRLRRYFVAFDGDLVQEFDMTSATHVLGSRDKNPAAQQVSPEWIWACIRKRRLVAPC
B5: PDS5B (protein, UniProt Q9NTI5 1-1447)
chain: MAHSKTRTNDGKITYPPGVKEISDKISKEEMVRRLKMVVKTFMDMDQDSEEEKELYLNLALHLASDFFLKHPDKDVRLLVACCLADIFRIYAPEAPYTSPDKLKDIFMFITRQLKGLEDTKSPQFNRYFYLLENIAWVKSYNICFELEDSNEIFTQLYRTLFSVINNGHNQKVHMHMVDLMSSIICEGDTVSQELLDTVLVNLVPAHKNLNKQAYDLAKALLKRTAQAIEPYITNFFNQVLMLGKTSISDLSEHVFDLILELYNIDSHLLLSVLPQLEFKLKSNDNEERLQVVKLLAKMFGAKDSELASQNKPLWQCYLGRFNDIHVPIRLECVKFASHCLMNHPDLAKDLTEYLKVRSHDPEEAIRHDVIVSIVTAAKKDILLVNDHLLNFVRERTLDKRWRVRKEAMMGLAQIYKKYALQSAAGKDAAKQIAWIKDKLLHIYYQNSIDDRLLVERIFAQYMVPHNLETTERMKCLYYLYATLDLNAVKALNEMWKCQNLLRHQVKDLLDLIKQPKTDASVKAIFSKVMVITRNLPDPGKAQDFMKKFTQVLEDDEKIRKQLEVLVSPTCSCKQAEGCVREITKKLGNPKQPTNPFLEMIKFLLERIAPVHIDTESISALIKQVNKSIDGTADDEDEGVPTDQAIRAGLELLKVLSFTHPISFHSAETFESLLACLKMDDEKVAEAALQIFKNTGSKIEEDFPHIRSALLPVLHHKSKKGPPRQAKYAIHCIHAIFSSKETQFAQIFEPLHKSLDPSNLEHLITPLVTIGHIALLAPDQFAAPLKSLVATFIVKDLLMNDRLPGKKTTKLWVPDEEVSPETMVKIQAIKMMVRWLLGMKNNHSKSGTSTLRLLTTILHSDGDLTEQGKISKPDMSRLRLAAGSAIVKLAQEPCYHEIITLEQYQLCALAINDECYQVRQVFAQKLHKGLSRLRLPLEYMAICALCAKDPVKERRAHARQCLVKNINVRREYLKQHAAVSEKLLSLLPEYVVPYTIHLLAHDPDYVKVQDIEQLKDVKECLWFVLEILMAKNENNSHAFIRKMVENIKQTKDAQGPDDAKMNEKLYTVCDVAMNIIMSKSTTYSLESPKDPVLPARFFTQPDKNFSNTKNYLPPEMKSFFTPGKPKTTNVLGAVNKPLSSAGKQSQTKSSRMETVSNASSSSNPSSPGRIKGRLDSSEMDHSENEDYTMSSPLPGKKSDKRDDSDLVRSELEKPRGRKKTPVTEQEEKLGMDDLTKLVQEQKPKGSQRSRKRGHTASESDEQQWPEEKRLKEDILENEDEQNSPPKKGKRGRPPKPLGGGTPKEEPTMKTSKKGSKKKSGPPAPEEEEEEERQSGNTEQKSKSKQHRVSRRAQQRAESPESSAIESTQSTPQKGRGRPSKTPSPSQPKKNVRVGRSKQAATKENDSSEEVDVFQGSSPVDDIPQEETEEEEVSTVNVRRRSAKRERR
B6: UACA (protein, UniProt Q9BZF9 1-1416)
chain: MKSLKSRLRRQDVPGPASSGAAAASAHAADWNKYDDRLMKAAERGDVEKVTSILAKKGVNPGKLDVEGRSVFHVVTSKGNLECLNAILIHGVDITTSDTAGRNALHLAAKYGHALCLQKLLQYNCPTEHADLQGRTALHDAAMADCPSSIQLLCDHGASVNAKDVDGRTPLVLATQMSRPTICQLLIDRGADVNSRDKQNRTALMLGCEYGCRDAVEVLIKNGADISLLDALGHDSSYYARIGDNLDILTLLKTASENTNKGRELWKKGPSLQQRNLTHMQDEVNVKSHQREHQNIQDLEIENEDLKERLRKIQQEQRILLDKVNGLQLQLNEEVMVADDLESEREKLKSLLAAKEKQHEESLRTIEALKNRFKYFESDHLGSGSHFSNRKEDMLLKQGQMYMADSQCTSPGIPAHMQSRSMLRPLELSLPSQTSYSENEILKKELEAMRTFCESAKQDRLKLQNELAHKVAECKALALECERVKEDSDEQIKQLEDALKDVQKRMYESEGKVKQMQTHFLALKEHLTSEAASGNHRLTEELKDQLKDLKVKYEGASAEVGKLRNQIKQNEMIVEEFKRDEGKLIEENKRLQKELSMCEMEREKKGRKVTEMEGQAKELSAKLALSIPAEKFENMKSSLSNEVNEKAKKLVEMEREHEKSLSEIRQLKRELENVKAKLAQHVKPEEHEQVKSRLEQKSGELGKKITELTLKNQTLQKEIEKVYLDNKLLKEQAHNLTIEMKNHYVPLKVSEDMKKSHDAIIDDLNRKLLDVTQKYTEKKLEMEKLLLENDSLSKDVSRLETVFVPPEKHEKEIIALKSNIVELKKQLSELKKKCGEDQEKIHALTSENTNLKKMMSNQYVPVKTHEEVKMTLNDTLAKTNRELLDVKKKFEDINQEFVKIKDKNEILKRNLENTQNQIKAEYISLAEHEAKMSSLSQSMRKVQDSNAEILANYRKGQEEIVTLHAEIKAQKKELDTIQECIKVKYAPIVSFEECERKFKATEKELKDQLSEQTQKYSVSEEEVKKNKQENDKLKKEIFTLQKDLRDKTVLIEKSHEMERALSRKTDELNKQLKDLSQKYTEVKNVKEKLVEENAKQTSEILAVQNLLQKQHVPLEQVEALKKSLNGTIENLKEELKSMQRCYEKEQQTVTKLHQLLENQKNSSVPLAEHLQIKEAFEKEVGIIKASLREKEEESQNKMEEVSKLQSEVQNTKQALKKLETREVVDLSKYKATKSDLETQISSLNEKLANLNRKYEEVCEEVLHAKKKEISAKDEKELLHFSIEQEIKDQKERCDKSLTTITELQRRIQESAKQIEAKDNKITELLNDVERLKQALNGLSQLTYTSGNPTKRQSQLIDTLQHQVKSLEQQLADADRQHQEVIAIYRTHLLSAAQGHMDEDVQEALLQIIQMRQGLVC

target: estrogen receptor alpha (ER) (human (endogenous in MCF-7 and ZR-75)) (UniProt P03372); assay: affinity purification with mass spectrometry; anti-ER antibody (Santa Cruz sc-8002) on Dynabeads Protein G, 1.5 mg lysate of MCF-7 or ZR-75 cells overnight at 4°C; cells starved, vehicle or 10 µM ERX-11 for 2 hr, then 10 nM E2 for 2 hr; the named proteins are ER binders whose co-precipitation was disrupted by ERX-11

binding, binds:
B1, B2, B3, B4, B5, B6
